Article PMC4877375
These are yes or no findings as the source states them, for the method shown. Binding seen in cells or lysates may run through a third protein. A yes stands for co-enrichment or nearness to the bait. Other partners may have been found.

T1: Trs120p-TAP (yeast (endogenous in the yeast strain)) (UniProt Q04183)
T1 sequence: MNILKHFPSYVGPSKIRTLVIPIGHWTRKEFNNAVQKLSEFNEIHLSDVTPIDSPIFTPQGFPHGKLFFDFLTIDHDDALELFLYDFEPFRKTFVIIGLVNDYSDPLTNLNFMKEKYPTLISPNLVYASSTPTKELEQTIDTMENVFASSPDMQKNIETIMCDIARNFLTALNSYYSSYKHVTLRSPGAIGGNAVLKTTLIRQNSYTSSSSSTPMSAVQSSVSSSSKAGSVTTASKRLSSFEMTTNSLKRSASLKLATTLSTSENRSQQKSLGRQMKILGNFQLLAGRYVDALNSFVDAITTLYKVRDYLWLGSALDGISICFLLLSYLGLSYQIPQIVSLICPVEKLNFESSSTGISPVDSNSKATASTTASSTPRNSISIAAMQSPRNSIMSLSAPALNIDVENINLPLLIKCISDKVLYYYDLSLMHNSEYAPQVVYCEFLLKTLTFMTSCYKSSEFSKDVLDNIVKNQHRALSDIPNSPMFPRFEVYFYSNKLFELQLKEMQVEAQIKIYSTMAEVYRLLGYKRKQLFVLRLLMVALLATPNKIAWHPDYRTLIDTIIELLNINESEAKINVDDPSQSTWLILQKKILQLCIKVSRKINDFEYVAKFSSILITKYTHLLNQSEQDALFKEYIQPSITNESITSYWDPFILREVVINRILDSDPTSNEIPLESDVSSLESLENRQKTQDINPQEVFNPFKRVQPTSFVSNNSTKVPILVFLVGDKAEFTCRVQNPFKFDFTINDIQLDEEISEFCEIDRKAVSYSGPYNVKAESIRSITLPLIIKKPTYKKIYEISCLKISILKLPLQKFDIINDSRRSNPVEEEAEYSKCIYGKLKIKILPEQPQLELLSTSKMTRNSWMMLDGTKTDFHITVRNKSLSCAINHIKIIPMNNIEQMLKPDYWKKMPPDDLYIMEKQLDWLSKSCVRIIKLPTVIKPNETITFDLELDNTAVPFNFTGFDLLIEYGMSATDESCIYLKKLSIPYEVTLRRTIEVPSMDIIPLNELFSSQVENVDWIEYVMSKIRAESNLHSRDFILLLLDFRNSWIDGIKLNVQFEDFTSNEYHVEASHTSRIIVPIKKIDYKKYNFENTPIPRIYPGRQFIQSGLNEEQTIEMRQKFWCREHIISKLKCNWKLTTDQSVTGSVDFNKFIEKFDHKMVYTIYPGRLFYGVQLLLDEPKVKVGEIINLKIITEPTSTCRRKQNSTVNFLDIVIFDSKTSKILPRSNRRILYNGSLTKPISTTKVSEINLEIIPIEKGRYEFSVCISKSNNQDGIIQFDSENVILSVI

B1: SEC21 (protein, UniProt P32074 1-935)
chain: MSAHTYKKFENSTSGDLPDKMTIYQDCMNTFNESPVNSKRCRLLISRLLRLLAQGETFPQNEATALFFSISKLFQHQNDPLRQAVYLAIKELSGISEDVLMATSSIMKDVQNGSDLIKPDAIRSLTYVLDESTAFSAERLLKSAVVSRHPSISSAALCTSYHLLPISEVTIRRFTNETQEAVLDLKQFPNQHGNSEYYPNSTYISQYHALGLLYQLKKTDKMALLKLVRHFSENNSMKNQLAKVELVKIVNDLIYRDPQLFSQFRPLLSDWLSNKFESVQLETAKLITSFATRNSRLVAPELYAAAISALQSLLTVPRVSSRFAALRILNRISMVSPEKIVVCNPELESLINDSNRNISTYAITTLLKTGTSKNISSLISTITNFIHDVSDDFKIIIIDAVRTLSLNFPQEWKSILNFLIDVLKNSEGGFKFKNSIVEALIDIVSFVPQSKELALENLCDFIEDCEFNEILVRILHLLGKEGPSAPNPSLYVRHIYNRVVLENSIIRSAAVVALSKFALTKNDPTLYESIISLLKRIANDKDDEVRDRATIALEFIDSARNKDDVIAQNLIESKYFYDIPSLESKLSSYISSNTDSFATAFDVNQVRKFTEDEMKAINLKRKQEQIFNQKSETTLDTTPEAESVPEKRADANSFAGPNLDDHQEDLLATKYADELLSIEQIKPFGQLVNSSRAISLTEPEAEFVVRGVKHLFKDNVVLQFNITNTLTDIALDNVSVVCTPEISDEAELEELFTLQVDRLLPSEEAACYVAFKKLDEIVMEGFLNNLTFTTKEINPDTNEPFDGDEGFQDEYEIDSIFLNAGDYVKSSFTGNFSATFDELPCEEVAVFNIQEDLSIQEVVDKIILNSSCLPVESTQFAPSDSNSHTLKLFGKSALTGSKVALQIKMIKSSKGLALKVHGKGEDSLLCSDLVNGLMQ
B2: SEC27 (protein, UniProt P41811 1-889)
chain: MKLDIKKTFSNRSDRVKGIDFHPTEPWVLTTLYSGRVELWNYETQVEVRSIQVTETPVRAGKFIARKNWIIVGSDDFRIRVFNYNTGEKVVDFEAHPDYIRSIAVHPTKPYVLSGSDDLTVKLWNWENNWALEQTFEGHEHFVMCVAFNPKDPSTFASGCLDRTVKVWSLGQSTPNFTLTTGQERGVNYVDYYPLPDKPYMITASDDLTIKIWDYQTKSCVATLEGHMSNVSFAVFHPTLPIIISGSEDGTLKIWNSSTYKVEKTLNVGLERSWCIATHPTGRKNYIASGFDNGFTVLSLGNDEPTLSLDPVGKLVWSGGKNAAASDIFTAVIRGNEEVEQDEPLSLQTKELGSVDVFPQSLAHSPNGRFVTVVGDGEYVIYTALAWRNKAFGKCQDFVWGPDSNSYALIDETGQIKYYKNFKEVTSWSVPMHSAIDRLFSGALLGVKSDGFVYFFDWDNGTLVRRIDVNAKDVIWSDNGELVMIVNTNSNGDEASGYTLLFNKDAYLEAANNGNIDDSEGVDEAFDVLYELSESITSGKWVGDVFIFTTATNRLNYFVGGKTYNLAHYTKEMYLLGYLARDNKVYLADREVHVYGYEISLEVLEFQTLTLRGEIEEAIENVLPNVEGKDSLTKIARFLEGQEYYEEALNISPDQDQKFELALKVGQLTLARDLLTDESAEMKWRALGDASLQRFNFKLAVEAFTNAHDLESLFLLHSSFNNKEGLVTLAKDAERAGKFNLAFNAYWIAGDIQGAKDLLIKSQRFSEAAFLGSTYGLGDDAVNDIVTKWKENLILNGKNTVSERVCGAEGLPGSSSSGDAQPLIDLDSTPAPEQADENKEAEVEDSEFKESNSEAVEAEKKEEEAPQQQQSEQQPEQGEAVPEPVEEES
B3: RVS161 (protein, UniProt P25343 1-265)
chain: MSWEGFKKAINRAGHSVIIKNVDKTIDKEYDMEERRYKVLQRAGEALQKEAKGFLDSLRAVTASQTTIAEVISNLYDDSKYVAGGGYNVGNYYLQCVQDFDSETVKQLDGPLRETVLDPITKFSTYFKEIEEAIKKRDHKKQDFDAAKAKVRRLVDKPAKDASKLPRAEKELSLAKDIFENLNNQLKTELPQLVSLRVPYFDPSFEALIKIQLRFCTDGYTRLAQIQQYLDQQSRDDYANGLLDTKIEELLGQMTSLDICALGIK
B4: PSA1 (protein, UniProt P41940 1-361)
chain: MKGLILVGGYGTRLRPLTLTVPKPLVEFGNRPMILHQIEALANAGVTDIVLAVNYRPEVMVETLKKYEKEYGVNITFSVETEPLGTAGPLKLAEDVLKKDNSPFFVLNSDVICEYPFKELADFHKAHGGKGTIVATKVDEPSKYGVIVHDIATPNLIDRFVEKPKEFVGNRINAGLYILNPEVIDLIEMKPTSIEKETFPILVEEKQLYSFDLEGFWMDVGQPKDFLSGTVLYLNSLAKRQPKKLATGANIVGNALIDPTAKISSTAKIGPDVVIGPNVTIGDGVRITRSVVLCNSTIKNHSLVKSTIVGWNSTVGQWCRLEGVTVLGDDVEVKDEIYINGGKVLPHKSISDNVPKEAIIM
B5: SEC26 (protein, UniProt P41810 1-973)
chain: MTSLSSQPAYTLVFDPSPSMETYSSTDFQKALEKGSDEQKIDTMKSILVTMLEGNPMPELLMHIIRFVMPSKNKELKKLLYFYWEIVPKLAEDGKLRHEMILVCNAIQHDLQHPNEYIRGNTLRFLTKLREAELLEQMVPSVLACLEYRHAYVRKYAILAVFSIFKVSEHLLPDAKEIINSFIVAETDPICKRNAFIGLAELDRENALHYLENNIADIENLDPLLQAVFVQFIRQDANRTPALKAQYIELLMELLSTTTSDEVIFETALALTVLSANPNVLVPAVNKLIDLAVKVSDNNIKLIVLDRIQDINANNVGALEELTLDILRVLNAEDLDVRSKALDISMDLATSRNAEDVVQLLKKELQTTVNNPDQDKAMQYRQLLIKTIRTVAVNFVEMAASVVSLLLDFIGDLNSVAASGIIAFIKEVIEKYPQLRANILENMVQTLDKVRSAKAYRGALWIMGEYAEGESEIQHCWKHIRNSVGEVPILQSEIKKLTQNQEHTEENEVDATAKPTGPVILPDGTYATESAFDVKTSQKSVTDEERDSRPPIRRFVLSGDFYTAAILANTIIKLVLKFENVSKNKTVINALKAEALLILVSIVRVGQSSLVEKKIDEDSLERVMTSISILLDEVNPEEKKEEVKLLEVAFLDTTKSSFKRQIEIAKKNKHKRALKDSCKNIEPIDTPISFRQFAGVDSTNVQKDSIEEDLQLAMKGDAIHATSSSSISKLKKIVPLCGFSDPVYAEACITNNQFDVVLDVLLVNQTKETLKNLHVQFATLGDLKIIDTPQKTNVIPHGFHKFTVTVKVSSADTGVIFGNIIYDGAHGEDARYVILNDVHVDIMDYIKPATADDEHFRTMWNAFEWENKISVKSQLPTLHAYLRELVKGTNMGILTPSESLGEDDCRFLSCNLYAKSSFGEDALANLCIEKDSKTNDVIGYVRIRSKGQGLALSLGDRVALIAKKTNKLALTHV
B6: LDB19 (protein, UniProt Q12502 1-818)
chain: MAFSRLTSTHQSNHNGYSNSNKKGQSLPLTLSIDVESPPCVLYGSAMESSGAVLSGLFTVTVVDPYSSAEDKSLKNTESNVSTTSKSLKRKSTFGSALSSRLSSLSASTSNISPSTSSTSISHSPTPANLRIMAGYTKITITSVTLSLVQKIHFHKPFVPNISSMQTCMNCKTKITNMKSWEIQSNTQDLSVGSHSYPFSYLIPGSVPCSSSLGATAETQVKYELIAVVTYIDPHRNSFSSGHSTPRKEGSSSKKRLLQLAMPIAVTRSIPRGPDKNSLRVFPPTELTAAAVLPNVVYPKSTFPLEMKLDGVSSGDRRWRMRKLSWRIEETTRVKAHACPVHKHELRQLEEQVKIKESEKSKKPRSHIKRYGELGPQIRVAVNSLENMPSQRLPGEPGREQAPNSSGPASTGNVGLDDENPVNEDEEDQPGSEFIHPSDDALRQELLMQQQRARQQQLQQELKNNSSLFTEEVRIISKGEMKSGWKTDFDNNGKIELVTEIDCMGLNSGVSNPVMHASTLQTPSTGNKKPSINVACDIQDPNLGLYVSHILAVEIVVAEETLQYANGQPIRKPNSKNKKETNNNTMNVHNPDQRLAELSPIFANRNTPKVRRMGPEDITPVNSNKSNHSTNKEKASNGASNSNIVSVPTGAARVLRMQFRLTVTERSGLGISWDEEVPPIYQDVELLSPPCYELSINNGIKNKLYSTMSTPVRSEDDFVGGSDEDIGNYESQGLEPGPNVQEVTITQNKLTIPPTAHHYQPASSSQRSLTTVQSPPLESVVSVQGSVPFRGHVLTPHSTRDIRIQNFSDFLDSNRITQ
B7: VPS17 (protein, UniProt P32913 1-551)
chain: MTSAVPYDPYDDLDNNPFAEPQEEDSEPAATTTDGSSSMSEERVGTEQTAASVQDNGTANNIQNGLGEEGNATRSKTSNEHNENQQPSQPSERVILPERSDEKKKYTLLAKVTGLERFGSATGKKENPTIIFDCSTNLPTFRKQQYKNVKKSYEEFHQLFKYLNVAIQESFVPTLPSAYTTFGINSEEDRMKVTRNFQLWFNRLSQDPLIIRNEEVAFFIESDFNTYTPINKSKSLASGLKRKTLKQLAPPYDEITELAEFRPLVKSIYVVSQSLQEKLLRVSRNRKMMVQEENAFGQDFVNLDEHNKLYRRYGKILTAVGDIDSIIATMDMATLYDGLEWIVRDAYAVKEALTNRHFIMRNLVQAQQNSKAKQEQARRFRSRRDINPMKIDEALRQLKAAAKNEQVLTLKLQRITSNMIIERKQWISWYEEWIRSSIKEFTLRKIEYERKKLTLLERVRSDIRKADENGGLSRLGRHAVSNNNSDTSQTLKGDSWTGESNRKSQIPINKIAHTEFDDELFTEDDGYNSQDSDTTSLNARHAASLLGMSTK

Each binder was assayed against T1, Trs120p-TAP (yeast (endogenous in the yeast strain)) (assay: affinity purification with mass spectrometry; Trs120p-TAP purified from yeast lysate (1% CHAPS, 100 mM NaCl) on IgG beads, TEV elution, calmodulin beads, EGTA elution; gel bands or total eluate analysed by MS/MS).

| binding | Binder |
| --- | --- |
| binds | B1 |
| binds | B2 |
| binds | B3 |
| binds | B4 |
| binds | B5 |
| binds | B6 |
| binds | B7 |
